Measured values: paper PMC7544205
No constants are given. Whether binding was seen depends on the method and setting. In cells and extracts the contact can be indirect. Some entries that bind do so weakly or less than the wild type. Sequences can lack the tags named with a protein.

By UniProt entry, the sequences of proteins in these tests, tags left out.
UniProt Q13838: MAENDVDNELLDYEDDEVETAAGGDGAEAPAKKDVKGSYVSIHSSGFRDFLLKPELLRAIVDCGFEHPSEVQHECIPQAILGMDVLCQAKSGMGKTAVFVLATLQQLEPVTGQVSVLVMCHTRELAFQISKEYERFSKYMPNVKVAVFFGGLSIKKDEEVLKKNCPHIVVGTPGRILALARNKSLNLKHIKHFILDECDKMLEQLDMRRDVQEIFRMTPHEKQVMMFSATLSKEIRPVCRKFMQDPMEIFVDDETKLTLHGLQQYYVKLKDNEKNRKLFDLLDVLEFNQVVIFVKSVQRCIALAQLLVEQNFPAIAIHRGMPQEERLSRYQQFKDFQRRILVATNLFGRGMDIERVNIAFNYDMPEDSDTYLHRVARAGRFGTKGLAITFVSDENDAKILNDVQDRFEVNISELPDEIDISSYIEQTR

What was measured:
[1] = target: T1, LAP-tagged NCBP3 (C17orf85) (UniProt Q53F19); assay: co-IP; LAP-tagged bait captured with anti-GFP antibodies on Dynabeads from HeLa cell extracts (20 mM HEPES pH 7.4, 0.5% Triton X-100, 150 mM NaCl), 4°C, 30 min; western blot; with or without RNase A/T1 on the beads; cells treated with siLuc, siNCBP3, siPHAX, siZC3H18, siEIF4A3, siRBM8A, siALYREF or siDDX39B
T1 sequence: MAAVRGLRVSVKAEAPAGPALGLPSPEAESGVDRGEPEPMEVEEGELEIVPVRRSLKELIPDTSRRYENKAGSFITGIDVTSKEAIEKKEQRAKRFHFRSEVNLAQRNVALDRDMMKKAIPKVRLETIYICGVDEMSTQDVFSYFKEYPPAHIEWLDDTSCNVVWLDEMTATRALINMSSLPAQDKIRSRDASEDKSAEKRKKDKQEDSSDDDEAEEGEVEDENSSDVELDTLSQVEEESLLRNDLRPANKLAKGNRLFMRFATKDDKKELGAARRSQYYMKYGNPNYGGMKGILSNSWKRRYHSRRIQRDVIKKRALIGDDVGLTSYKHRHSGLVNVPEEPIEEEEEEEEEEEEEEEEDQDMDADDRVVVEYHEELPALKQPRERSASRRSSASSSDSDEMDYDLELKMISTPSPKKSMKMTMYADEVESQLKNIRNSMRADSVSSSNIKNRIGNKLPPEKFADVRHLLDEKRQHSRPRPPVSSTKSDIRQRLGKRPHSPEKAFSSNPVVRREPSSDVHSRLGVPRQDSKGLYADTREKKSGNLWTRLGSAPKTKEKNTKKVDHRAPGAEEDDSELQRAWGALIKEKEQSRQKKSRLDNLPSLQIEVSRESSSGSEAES

[2] = target: T2, LAP-tagged NCBP2 (Nuclear Cap-Binding Protein 2) (UniProt P52298); assay: as above
T2 sequence: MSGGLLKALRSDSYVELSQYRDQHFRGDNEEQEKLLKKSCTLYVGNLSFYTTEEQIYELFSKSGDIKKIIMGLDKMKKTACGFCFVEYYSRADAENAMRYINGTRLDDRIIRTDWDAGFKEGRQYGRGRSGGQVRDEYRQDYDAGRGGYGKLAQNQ

binding [1]	binding [2]	Substance
binds	binds	DDX39B (from UniProt Q13838 1-428)
	binds	EIF4A3 (from UniProt P38919 1-411)
	binds	MAGOH (from UniProt P61326 1-146)
	binds	MLN51/CASC3/BTZ (from UniProt O15234 1-703)
